Results from publication PMC9107480.
Results are given in words; binding and its absence hold for the method and conditions named. For some of these results: In cells and extracts the contact can be indirect. Some results given as binding are weak or reduced against the parent protein; the word gives no strength. Each block holds one substance with its values, some of them ahead of it.

The chains behind the UniProt entries cited, without tags or fusion partners. Where a name states a change or a piece, a line headed by the entry shows the natural chain unless it says otherwise.
UniProt P49841: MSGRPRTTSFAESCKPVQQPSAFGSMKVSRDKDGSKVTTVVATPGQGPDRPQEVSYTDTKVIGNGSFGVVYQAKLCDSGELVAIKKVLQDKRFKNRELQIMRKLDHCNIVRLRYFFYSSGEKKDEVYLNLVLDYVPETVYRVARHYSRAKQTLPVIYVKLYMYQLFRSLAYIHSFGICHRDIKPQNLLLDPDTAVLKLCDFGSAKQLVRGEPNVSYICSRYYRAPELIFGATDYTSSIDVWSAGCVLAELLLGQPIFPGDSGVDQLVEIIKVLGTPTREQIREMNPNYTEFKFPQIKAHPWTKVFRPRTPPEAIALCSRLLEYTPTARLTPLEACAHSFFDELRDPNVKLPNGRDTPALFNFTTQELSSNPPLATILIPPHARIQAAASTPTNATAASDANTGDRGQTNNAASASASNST
UniProt O60573: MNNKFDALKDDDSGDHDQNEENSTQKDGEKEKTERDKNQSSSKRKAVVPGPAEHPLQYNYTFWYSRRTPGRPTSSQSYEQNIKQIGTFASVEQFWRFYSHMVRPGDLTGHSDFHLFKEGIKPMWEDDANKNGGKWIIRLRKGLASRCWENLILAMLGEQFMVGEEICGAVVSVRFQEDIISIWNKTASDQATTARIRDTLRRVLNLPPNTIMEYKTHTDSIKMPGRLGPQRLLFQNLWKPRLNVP

Experiments:
GSK3β-HOTag6 [1] = molecular target: GSK3β-HOTag6 (UniProt P49841); assay: SPPIER (phase separation-based protein interaction reporter); cells expressing the SPPIER reporter, 2-h hypoxia exposure
GSK3β-HOTag6 [2] = molecular target: GSK3β-HOTag6 (UniProt P49841); assay: SPPIER (phase separation-based protein interaction reporter); cells transiently expressing EGFP-eIF4E2-HOTag3-T2A-GSK3β-HOTag6; EGFP droplets; normal conditions, or 2 mM L-Arginine for 1 h (interaction inhibited)
eIF4E2 (human) = eIF4E2 (human) (UniProt O60573); assay: pull-down; GST pull-down of eIF4E2 and GSK3β with peptide G3-I added
[3] = molecular target: GSK3β (endogenous) (human (endogenous; cell line of the IP not shown, all cell lines of the paper are human)) (UniProt P49841); assay: co-IP; endogenous proteins from cell extracts; for GSK3β: anti-GSK3β antibody or IgG, cells in normal or hypoxia (1% O2) condition for 24 h (less eIF4E2 under hypoxia)
[4] = molecular target: T1, RBM38 (endogenous) (human (endogenous; cell line of the IP not shown, all cell lines of the paper are human)) (UniProt Q9H0Z9); assay: as above
T1 sequence: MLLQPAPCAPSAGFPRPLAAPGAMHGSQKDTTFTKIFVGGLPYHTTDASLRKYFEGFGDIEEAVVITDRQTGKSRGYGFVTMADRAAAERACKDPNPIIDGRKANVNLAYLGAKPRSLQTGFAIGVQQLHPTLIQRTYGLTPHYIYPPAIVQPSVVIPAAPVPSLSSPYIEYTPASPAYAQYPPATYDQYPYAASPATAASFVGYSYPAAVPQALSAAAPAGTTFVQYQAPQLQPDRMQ

[5] = molecular target: Glycogen synthase kinase-3β (UniProt P49841); assay: pull-down; GST pull-down of eIF4E2 and GSK3β with peptide e2-I added
[6] = molecular target: Glycogen synthase kinase-3β (UniProt P49841); assay: pull-down; GST pull-down of eIF4E2 and GSK3β with peptide G3-I added
[7] = molecular target: Glycogen synthase kinase-3β (UniProt P49841); assay: pull-down; GST pull-down of eIF4E2 and GSK3β with nanobody Nb-28A1 added
[8] = molecular target: Glycogen synthase kinase-3β (UniProt P49841); assay: pull-down; GST pull-down; the paper calls the interactions direct; which partner carried GST not shown
[9] = molecular target: T2, RNA-binding protein RBM38 (UniProt Q9H0Z9); assay: as above
T2 sequence: T1 sequence

binding (GSK3β-HOTag6 [2]): binds
Substance: EGFP-eIF4E2-HOTag3 (from UniProt O60573 1-245)
binding (GSK3β-HOTag6 [1]): no binding (condition: 2-h hypoxia exposure)

binding (eIF4E2 (human)): binds
Substance: Peptide G3-I (from UniProt P49841 314-329)

binding [3]: binds
binding [4]: binds
Substance: eIF4E2 (endogenous) (from UniProt O60573 1-245)

binding [5]: binds
binding [6]: binds
binding [7]: binds
binding [8]: binds
binding [9]: binds
Substance: eIF4E2 (from UniProt O60573 1-245)
